Assay results as given in the supplement of paper PMC12067093, “Discovery and optimisation of a covalent ligand for TRIM25 and its application to targeted protein ubiquitination” (Chemical Science, 2025).
Some of the results follow.

By UniProt entry, the sequences of proteins in these tests, tags left out. Where a name states a change or a piece, a line headed by the entry shows the natural chain unless it says otherwise.
UniProt Q8WUA2: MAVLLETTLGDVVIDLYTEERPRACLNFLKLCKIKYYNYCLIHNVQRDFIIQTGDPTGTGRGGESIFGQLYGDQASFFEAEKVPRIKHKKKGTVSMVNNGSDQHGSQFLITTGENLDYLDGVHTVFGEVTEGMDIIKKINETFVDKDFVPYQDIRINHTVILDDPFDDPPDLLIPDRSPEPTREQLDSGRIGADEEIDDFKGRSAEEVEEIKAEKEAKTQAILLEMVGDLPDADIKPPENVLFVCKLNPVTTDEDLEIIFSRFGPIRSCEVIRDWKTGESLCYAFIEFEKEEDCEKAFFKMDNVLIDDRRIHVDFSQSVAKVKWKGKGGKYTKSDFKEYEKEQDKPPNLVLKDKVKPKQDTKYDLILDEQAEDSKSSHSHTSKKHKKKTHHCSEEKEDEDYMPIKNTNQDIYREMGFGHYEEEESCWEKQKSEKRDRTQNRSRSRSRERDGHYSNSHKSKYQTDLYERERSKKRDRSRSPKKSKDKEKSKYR
UniProt Q9H2H8: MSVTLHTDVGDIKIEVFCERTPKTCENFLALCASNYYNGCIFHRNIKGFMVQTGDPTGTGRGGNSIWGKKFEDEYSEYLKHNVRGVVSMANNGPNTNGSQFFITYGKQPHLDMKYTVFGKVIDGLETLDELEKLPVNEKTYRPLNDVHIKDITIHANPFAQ
UniProt Q9NUX5: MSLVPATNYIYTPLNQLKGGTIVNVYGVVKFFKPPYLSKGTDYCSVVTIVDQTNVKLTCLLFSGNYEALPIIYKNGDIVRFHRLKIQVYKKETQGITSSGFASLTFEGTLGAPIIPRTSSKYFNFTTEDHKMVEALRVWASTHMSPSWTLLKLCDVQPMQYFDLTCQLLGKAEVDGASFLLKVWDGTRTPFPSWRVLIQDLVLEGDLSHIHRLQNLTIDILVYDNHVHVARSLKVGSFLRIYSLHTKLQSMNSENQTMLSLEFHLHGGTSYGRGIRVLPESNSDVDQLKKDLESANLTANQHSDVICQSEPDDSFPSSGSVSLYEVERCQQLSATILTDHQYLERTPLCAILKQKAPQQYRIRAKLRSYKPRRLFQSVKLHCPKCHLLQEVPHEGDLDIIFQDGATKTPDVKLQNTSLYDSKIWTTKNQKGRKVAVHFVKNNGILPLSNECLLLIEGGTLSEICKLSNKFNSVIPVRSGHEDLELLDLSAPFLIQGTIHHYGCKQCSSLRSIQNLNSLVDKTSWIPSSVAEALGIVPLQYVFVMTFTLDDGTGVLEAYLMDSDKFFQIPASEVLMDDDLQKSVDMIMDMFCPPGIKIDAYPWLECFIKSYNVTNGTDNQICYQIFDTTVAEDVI
UniProt Q15181: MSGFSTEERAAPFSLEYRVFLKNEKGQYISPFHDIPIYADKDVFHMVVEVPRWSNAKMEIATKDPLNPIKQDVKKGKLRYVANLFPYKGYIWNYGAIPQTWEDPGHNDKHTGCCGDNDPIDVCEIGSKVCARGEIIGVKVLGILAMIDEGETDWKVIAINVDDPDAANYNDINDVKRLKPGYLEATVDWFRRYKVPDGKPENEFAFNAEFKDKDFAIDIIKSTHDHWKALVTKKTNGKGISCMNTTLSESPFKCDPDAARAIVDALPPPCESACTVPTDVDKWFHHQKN
UniProt Q96HA1, whole entry: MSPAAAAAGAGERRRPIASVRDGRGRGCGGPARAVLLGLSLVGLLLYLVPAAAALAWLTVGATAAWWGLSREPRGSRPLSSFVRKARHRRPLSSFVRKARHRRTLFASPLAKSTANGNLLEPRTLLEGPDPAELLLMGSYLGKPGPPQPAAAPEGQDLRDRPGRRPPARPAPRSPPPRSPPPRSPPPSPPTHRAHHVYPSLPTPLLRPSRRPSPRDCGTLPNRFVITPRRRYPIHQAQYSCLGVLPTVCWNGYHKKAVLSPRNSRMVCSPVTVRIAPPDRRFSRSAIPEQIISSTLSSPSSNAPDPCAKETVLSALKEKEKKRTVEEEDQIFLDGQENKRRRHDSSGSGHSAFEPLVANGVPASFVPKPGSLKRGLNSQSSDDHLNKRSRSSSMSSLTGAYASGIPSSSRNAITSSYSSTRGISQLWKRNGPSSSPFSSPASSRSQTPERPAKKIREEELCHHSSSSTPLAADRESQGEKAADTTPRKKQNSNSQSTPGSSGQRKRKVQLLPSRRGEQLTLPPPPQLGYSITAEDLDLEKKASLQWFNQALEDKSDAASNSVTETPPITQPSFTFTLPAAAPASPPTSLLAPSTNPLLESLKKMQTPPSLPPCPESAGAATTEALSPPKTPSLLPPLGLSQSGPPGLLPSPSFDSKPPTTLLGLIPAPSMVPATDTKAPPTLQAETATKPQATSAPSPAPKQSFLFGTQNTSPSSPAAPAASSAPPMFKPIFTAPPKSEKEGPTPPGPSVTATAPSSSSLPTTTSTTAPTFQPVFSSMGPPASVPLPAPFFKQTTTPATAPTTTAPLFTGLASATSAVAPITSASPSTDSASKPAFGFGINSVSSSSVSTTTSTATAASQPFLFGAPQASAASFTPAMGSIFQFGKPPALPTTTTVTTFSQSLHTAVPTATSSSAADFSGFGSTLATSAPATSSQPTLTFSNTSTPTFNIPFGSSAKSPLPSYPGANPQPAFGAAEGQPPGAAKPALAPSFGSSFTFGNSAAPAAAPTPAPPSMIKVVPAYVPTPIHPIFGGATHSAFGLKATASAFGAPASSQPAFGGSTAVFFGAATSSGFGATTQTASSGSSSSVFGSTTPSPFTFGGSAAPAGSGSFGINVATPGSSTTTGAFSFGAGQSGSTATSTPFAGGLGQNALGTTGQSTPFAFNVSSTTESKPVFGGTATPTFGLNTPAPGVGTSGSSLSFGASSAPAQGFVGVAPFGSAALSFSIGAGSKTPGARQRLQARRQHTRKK
UniProt Q99575: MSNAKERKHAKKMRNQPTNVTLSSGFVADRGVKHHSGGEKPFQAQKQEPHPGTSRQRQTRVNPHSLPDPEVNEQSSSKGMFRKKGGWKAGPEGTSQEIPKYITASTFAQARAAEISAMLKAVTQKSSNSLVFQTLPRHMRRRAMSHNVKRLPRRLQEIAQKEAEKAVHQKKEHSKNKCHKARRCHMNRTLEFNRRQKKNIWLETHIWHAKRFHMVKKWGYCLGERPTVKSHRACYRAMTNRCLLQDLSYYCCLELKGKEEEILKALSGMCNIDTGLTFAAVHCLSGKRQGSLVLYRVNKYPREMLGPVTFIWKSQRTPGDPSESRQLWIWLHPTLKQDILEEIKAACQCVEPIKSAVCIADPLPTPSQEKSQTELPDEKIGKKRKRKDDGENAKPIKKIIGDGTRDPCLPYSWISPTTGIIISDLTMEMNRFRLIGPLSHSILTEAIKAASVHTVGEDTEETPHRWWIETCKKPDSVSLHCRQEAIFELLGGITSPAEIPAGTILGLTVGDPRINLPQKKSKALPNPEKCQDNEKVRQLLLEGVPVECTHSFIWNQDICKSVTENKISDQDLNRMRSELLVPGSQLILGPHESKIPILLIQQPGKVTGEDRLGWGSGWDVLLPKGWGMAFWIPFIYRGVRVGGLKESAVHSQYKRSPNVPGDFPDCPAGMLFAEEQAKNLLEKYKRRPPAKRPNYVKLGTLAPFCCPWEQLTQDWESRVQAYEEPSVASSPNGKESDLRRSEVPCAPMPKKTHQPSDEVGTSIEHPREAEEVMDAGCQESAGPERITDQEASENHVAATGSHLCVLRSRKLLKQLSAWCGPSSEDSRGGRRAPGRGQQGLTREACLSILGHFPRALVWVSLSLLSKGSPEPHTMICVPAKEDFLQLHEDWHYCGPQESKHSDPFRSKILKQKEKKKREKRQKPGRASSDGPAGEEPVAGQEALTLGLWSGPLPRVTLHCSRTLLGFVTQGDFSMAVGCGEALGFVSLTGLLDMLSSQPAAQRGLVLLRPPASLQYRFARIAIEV

Compound: Cc1cc(ccc1-c1ccccc1)C(=O)N1CCCN(CC1)C(=O)CCl [compound 10]
Assay: probe-labelled cysteine peptide fold change vs DMSO (competition) (log2 fold change); higher = less target engagement (more negative = stronger competition)
Conditions: THP-1, incubation time: 4 h
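Also: competitive profiling in live THP-1 cells: cysteine peptides tagged with an iodoacetamide desthiobiotin (IA-DTB) probe, intensity after compound treatment relative to DMSO-treated cells.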

POLR2K_P53803_19+22_QQPMIYICGECHTENEIK (UniProt P53803)
probe-labelled cysteine peptide fold change (10 µM): -0.0758
probe-labelled cysteine peptide fold change (50 µM): -0.224

PPIL4_Q8WUA2_245_TQAILLEMVGDLPDADIKPPENVLFVCK (UniProt Q8WUA2)
probe-labelled cysteine peptide fold change (10 µM): 0.611
probe-labelled cysteine peptide fold change (50 µM): 0.292

PPIL3_Q9H2H8_25_TCENFLALCASNYYNGCIFHR (UniProt Q9H2H8)
probe-labelled cysteine peptide fold change (10 µM): -0.416
probe-labelled cysteine peptide fold change (50 µM): -0.172

POT1_Q9NUX5_503_SGHEDLELLDLSAPFLIQGTIHHYGCK (UniProt Q9NUX5)
probe-labelled cysteine peptide fold change (10 µM): 0.198
probe-labelled cysteine peptide fold change (50 µM): 0.118

PPA1_Q15181_123_HTGCCGDNDPIDVCEIGSK (UniProt Q15181)
probe-labelled cysteine peptide fold change (10 µM): -0.336
probe-labelled cysteine peptide fold change (50 µM): -0.0139

POLR2A_P24928_233_ISDEECFVLGMEPR (UniProt P24928)
probe-labelled cysteine peptide fold change (10 µM): 0.078
probe-labelled cysteine peptide fold change (50 µM): 0.0416

POLR1B_Q9H9Y6_944_SAALHGLCHDATPFIFSEENSALEYFGEMLK (UniProt Q9H9Y6)
probe-labelled cysteine peptide fold change (10 µM): 0.148
probe-labelled cysteine peptide fold change (50 µM): 0.418

POM121_Q96HA1_217_DCGTLPNR (UniProt Q96HA1)
probe-labelled cysteine peptide fold change (10 µM): -0.11
probe-labelled cysteine peptide fold change (50 µM): -0.441

POLR2A_P24928_1407_HLALLCDTMTCR (UniProt P24928)
probe-labelled cysteine peptide fold change (10 µM): 0.0274
probe-labelled cysteine peptide fold change (50 µM): 0.0822

POLR2K_P53803_22_QQPMIYICGECHTENEIK (UniProt P53803)
probe-labelled cysteine peptide fold change (10 µM): -0.0834
probe-labelled cysteine peptide fold change (50 µM): -0.286

POP1_Q99575_252_CLLQDLSYYCCLELK (UniProt Q99575)
probe-labelled cysteine peptide fold change (10 µM): 0.19
probe-labelled cysteine peptide fold change (50 µM): 0.163
